Measurements published in PubChem BioAssay AID624291 (National Center for Advancing Translational Sciences (NCATS), 2012).
About 220 (0.063%) of roughly 350,000 compounds were called active. The shares of active, inactive and inconclusive entries below differ from those in the screen. Calls follow the shape of the dose curve; as a rule, active = well fitted activation curve with a large enough effect; inconclusive = small, poorly fitted or top-dose-only effect; inactive = no such curve, though single readings can be large or run the other way. Potencies of inconclusive entries are doubtful fits and often do not repeat.

test: qHTS for Activators of Integrin-Mediated Alleviation for Muscular Dystrophy; conditions: alpha7betagal myoblasts, beta-gal FDG fluorescence, 48 h; activation: at 38.3 µM (top of the series); also: nearly all actives have a fitted effect of over 60% in size;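 as to activation: 100% = response of the positive control SU9516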
Summary of the method: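 Alpha7betagal+/- myoblasts (passage 13) were plated 16-24 hr, then exposed to compounds (1:260 dilution of DMSO stock) for 48 hours at 37C. After MPER lysis, β-galactosidase reporter activity was read as FDG fluorescence (ex 480/em 540) after 30 minutes.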
Potency is read from the fitted curve at half-maximal effect.

Potency, inconclusive:
COc1ccc(S(N)(=O)=O)cc1C(=O)N(C)CC(=O)Nc1ccc(N2CCOCC2)cc1 5.01 µM [activator, single point]
O=C(N/N=C/c1coc2ccccc2c1=O)c1ccccc1Br 15.8 µM [activator, partial curve, poor fit]
CN1CCN(c2nc(N3CCN(c4ccccc4)CC3)ncc2F)CC1 28.2 µM [activator, single point]
Cc1cc(C)nc(-n2nc(C)cc2NC(=O)C(C)C)n1 15.8 µM [activator, single point]
CS(=O)(=O)NCCNC(=O)c1cc(OCC(F)(F)F)ccc1OCC(F)(F)F 1 µM [activator, partial curve, poor fit]
c1cncc(CSc2ccc(-c3ccc4c(c3)OCO4)nn2)c1 1.26 µM [activator, partial curve, poor fit]
CCOc1ccccc1NC(=O)COC(=O)c1cc(C(=O)OC)cc([N+](=O)[O-])c1 1.12 µM [activator, partial curve, poor fit]
CSCC[C@H](NC(=O)c1cccs1)C(=O)N1CCC2(CC1)NCCc1[nH]cnc12 6.31 µM [activator, single point]
CC12c3ccccc3C(c3ccccc31)C1C(=O)N(c3ccncc3)C(=O)C12 (stereo not drawn) 28.2 µM [activator, single point]
CCOC(=O)C1CCN(C(=O)CCNS(=O)(=O)c2ccc3c(c2)CCN3C(=O)CC)CC1 5.01 µM [activator, single point]
Cc1ccccc1OC(C)C(=O)N1CCN(c2ccccn2)CC1 (stereo not drawn) 3.55 µM [activator, single point]
COc1ccc(NC(=O)c2ccc(C#N)cc2)cc1NS(=O)(=O)c1ccc(F)cc1 5.01 µM [activator, single point]
O=C(COC(=O)CN1C(=O)c2ccccc2C1=O)Nc1ccccc1[N+](=O)[O-] 3.98 µM [activator, single point]
CCCCc1nc2cc(C(=O)N3CCN(c4cnccn4)CC3)ccc2o1 11.2 µM [activator, single point]
Cc1nn(-c2ccccc2)c(C)c1/C=N/NC(=O)c1ccccc1O 3.55 µM [activator, partial curve, poor fit]
COc1ccc(N2C(=S)NC(C)(C)CC2(C)c2ccc(OC(C)=O)cc2OC(C)=O)cc1 (stereo not drawn) 1.41 µM [activator, partial curve, poor fit]
CC1=NNC(=O)C1CC(=O)N/N=C(/C)c1cccc([N+](=O)[O-])c1 (stereo not drawn) 1 µM [activator, full curve, poor fit]
Cc1ccccc1NC(=O)c1ccc(C)c(S(=O)(=O)N2CCN(C)CC2)c1 2 µM [activator, full curve, poor fit]
CC1CCC(NC(=O)c2cc(Cl)nc3ccccc23)CC1 (stereo not drawn) 0.501 µM [activator, full curve, poor fit]
COCCCNC(=O)[C@H](Cc1c[nH]c2ccccc12)NC(=O)OCc1ccccc1 3.16 µM [activator, partial curve, poor fit]
OCCC1CN(Cc2ccccc2-c2ccco2)CCN1Cc1ccsc1 (stereo not drawn) 2.51 µM [activator, single point]
CC(C)NC(=O)C(c1ccc(F)cc1)N(C(=O)CCC(=O)Nc1ccccn1)c1ccccc1F (stereo not drawn) 1.41 µM [activator, partial curve, poor fit]
COCCCNC(=O)Cn1cc(C(C)=O)c2ccccc21 11.2 µM [activator, single point]
c1ccc2c(c1)CCc1ccccc1C2=C1CCNCC1 14.1 µM [activator, single point]
Cc1ccc(NS(=O)(=O)c2ccc3c(c2)NC(=O)CCS3)cc1C 3.16 µM [activator, partial curve, poor fit]
COc1ccccc1N1CCN(/N=C/c2cc([N+](=O)[O-])ccc2Cl)CC1 15.8 µM [activator, single point]
COc1ccc(C2/C(=C(\O)c3ccc4c(c3)OCCO4)C(=O)C(=O)N2Cc2cccnc2)cc1 (stereo not drawn) 28.2 µM [activator, single point]
CC(=O)Nc1nonc1-c1nc2ccccc2n1CC1CC1 10 µM [activator, partial curve, poor fit]
O=C1CN(C(=O)c2ccccc2F)C(c2ccccc2)c2cc(Cl)ccc2N1 (stereo not drawn) 1.78 µM [activator, single point]

An excerpt from above in order of molar mass, high to low.
Potency, inconclusive:
CC(C)NC(=O)C(c1ccc(F)cc1)N(C(=O)CCC(=O)Nc1ccccn1)c1ccccc1F (stereo not drawn) 1.41 µM [activator, partial curve, poor fit]
CSCC[C@H](NC(=O)c1cccs1)C(=O)N1CCC2(CC1)NCCc1[nH]cnc12 6.31 µM [activator, single point]
CN1CCN(c2nc(N3CCN(c4ccccc4)CC3)ncc2F)CC1 28.2 µM [activator, single point]

Next part.

activation, inactive:
CCN(CC(=O)NC(=O)NC1CCCCC1)Cc1ccccc1 13.2%
O=C(NC(NC(=S)Nc1c(Cl)cccc1Cl)C(Cl)(Cl)Cl)c1cccc([N+](=O)[O-])c1 (stereo not drawn) -66.5%
Cc1ccc(C(C(=O)NC2CCCCC2)N2CCC3(CC2)OCCO3)cc1 (stereo not drawn) -14.6%
Cc1cc(C(=O)CN2C(=O)C(=O)N(CC(C)C)C2=O)c(C)n1C1CC1 14.6%
CCCCCC(O)(c1ccccc1)C(CN1CCOCC1)c1ccccc1 (stereo not drawn) 0%
O=C(Cn1cnc2c(NC(=O)OCc3ccccc3)ncnc21)NCc1ccccn1 -0.87%
O=C(N/N=C/c1cccc(OC(=O)c2ccc3c(c2)OCO3)c1)c1cncc(Br)c1 8.08%
O=C(c1cccs1)N1CCN(c2nc3c(F)cc(F)cc3s2)CC1 3.66%
Cn1cccc1/C=C(/C#N)C(N)=S -10.3%
CCOc1ccc(NCc2ccccc2OCc2cccc(F)c2)cc1 21.1%
CCCC1C(C(=O)OCC)=C(C)NC(C)=C1C(=O)OCC -17.5%
CC(C)(C)c1nnc(N/N=C/c2ccc(Br)cc2)n(N)c1=O -6.61%
C=CC[n+]1ccc2ccccc2c1C 9.74%
Cc1nn(CC(=O)NC2CCCCC2)c(C)c1[N+](=O)[O-] 6.24%
